In US20050074826A1:
These are yes or no findings as the source states them, for the method shown. Some binding calls cover weakened binding; strength is not graded here.

Amino acid sequences for entries named in this document (tags omitted). Residues count along the entry.
UniProt P61073: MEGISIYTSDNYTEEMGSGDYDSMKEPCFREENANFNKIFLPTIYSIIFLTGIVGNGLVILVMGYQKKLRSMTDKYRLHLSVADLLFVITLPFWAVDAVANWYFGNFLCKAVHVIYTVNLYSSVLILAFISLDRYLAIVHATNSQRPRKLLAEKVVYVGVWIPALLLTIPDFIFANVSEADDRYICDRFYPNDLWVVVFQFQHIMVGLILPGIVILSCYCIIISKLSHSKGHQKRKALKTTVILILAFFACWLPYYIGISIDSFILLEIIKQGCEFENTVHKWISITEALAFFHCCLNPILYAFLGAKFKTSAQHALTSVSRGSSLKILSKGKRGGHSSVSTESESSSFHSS
UniProt P40224, residues 22-89: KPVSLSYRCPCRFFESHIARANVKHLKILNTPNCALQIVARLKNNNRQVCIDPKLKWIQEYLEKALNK

Molecular target: CXCR4, human (human) (UniProt P61073)
Assay: DisplaceMax displacement of 125I SDF-1α on CEM-NKr cells (CXCR4)

**Q.** “mouse SDF-1 (from UniProt P40224 22-89) (ligand)” was tested. Which binding did it give?
**A.** Its binding is “binds”.
